Source: patent US7169817B2, “Bis-aromatic alkanols” (IRM LLC, priority 2002, dated 2007)
Some entries share one result that the patent states for a list of compounds.

Tested on: peripheral blood lymphocytes
Test: In vivo blood lymphocyte depletion
Details: rats, oral, 6 hours after administration, dose 0.8 mg/kg

## C=Cc1ccc(-c2ccc(CC[C@@](C)(N)CO)cc2)cc1 [Example 2, (R)-2-Amino-4-(4′-vinyl-biphenyl-4-yl)-2-methyl-butan-1-ol]
  depletion of peripheral blood lymphocytes: more than 50%
